{"source": "patent US20020028482A1", "about": "“NIP45 HUMAN HOMOLOG” (priority 1997, published 2002)", "target": "T1, murine NFATp (mNFATp) (murine) (UniProt Q60591)", "T1 sequence (looked up)": "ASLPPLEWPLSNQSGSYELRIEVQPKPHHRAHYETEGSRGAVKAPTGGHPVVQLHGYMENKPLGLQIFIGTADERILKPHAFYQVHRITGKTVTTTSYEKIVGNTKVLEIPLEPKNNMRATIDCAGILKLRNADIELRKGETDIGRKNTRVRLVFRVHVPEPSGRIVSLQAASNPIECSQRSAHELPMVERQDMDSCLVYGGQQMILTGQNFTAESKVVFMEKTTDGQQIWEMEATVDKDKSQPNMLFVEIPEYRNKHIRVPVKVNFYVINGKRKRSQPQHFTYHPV", "assay": "yeast two-hybrid, colonies", "note": "No constants are given. Whether binding was seen depends on the method and setting. Some binding calls cover weakened binding; strength is not graded here."}
{"binder": "murine NIP45 (mNIP45) (protein) MAEPLRGRGPRSRGGRGARRARGARGRCPRARQSPARLIPDTVLVDLVSDSDEEVLEVADPVEVPVARLPAPAKPEQDSDSDSEGAAEGPAGAPRTLVRRRRRRLLDPGEAPVVPVYSGKVQSSLNLIPDNSSLLKLCPSEPEDEADLTNSGSSPSEDDALPSGSPWRKKLRKKCEKEEKKMEEFPDQDISPLPQPSSRNKSRKHTEALQKLREVNKRLQDLRSCLSPKQHQSPALQSTDDEVVLVEGPVLPQSSRLFTLKIRCRADLVRLPVRMSEPLQNVVDHMANHLGVSPNRILLLFGESELSPTATPSTLKLGVADIIDCVVLASSSEATETSQELRLRVQGKEKHQMLEISLSPDSPLKVLMSHYEEAMGLSGHKLSFFFDGTKLSGKELPADLGLESGDLIEVWG", "values": [{"measurement": "binding", "value": "binds"}]}
